According to the supplement of paper PMC12823440, “Inhibitors supercharge kinase turnover through native proteolytic circuits” (Nature, 2025):
Structures can show the parent of a compound that is named as a salt. The list shows a part of the results. The calls rarely recur for the same compound in another form.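 In K562 cells expressing nanoluciferase-fused kinases, luminescence was recorded at 4 h intervals between 2 and 18 h, normalized as percent of control with DMSO at 100% and a positive control at 0%. A significant (2 sigma) signal drop marks a time point as decreased. The authors' rule for a hit is not shown and takes in more than the number of time points.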

Chains of the proteins cited; added tags and fusions are not shown. Lines headed by an entry give the natural chain unless they say otherwise; changes in a name come on top.
UniProt P21860, whole entry: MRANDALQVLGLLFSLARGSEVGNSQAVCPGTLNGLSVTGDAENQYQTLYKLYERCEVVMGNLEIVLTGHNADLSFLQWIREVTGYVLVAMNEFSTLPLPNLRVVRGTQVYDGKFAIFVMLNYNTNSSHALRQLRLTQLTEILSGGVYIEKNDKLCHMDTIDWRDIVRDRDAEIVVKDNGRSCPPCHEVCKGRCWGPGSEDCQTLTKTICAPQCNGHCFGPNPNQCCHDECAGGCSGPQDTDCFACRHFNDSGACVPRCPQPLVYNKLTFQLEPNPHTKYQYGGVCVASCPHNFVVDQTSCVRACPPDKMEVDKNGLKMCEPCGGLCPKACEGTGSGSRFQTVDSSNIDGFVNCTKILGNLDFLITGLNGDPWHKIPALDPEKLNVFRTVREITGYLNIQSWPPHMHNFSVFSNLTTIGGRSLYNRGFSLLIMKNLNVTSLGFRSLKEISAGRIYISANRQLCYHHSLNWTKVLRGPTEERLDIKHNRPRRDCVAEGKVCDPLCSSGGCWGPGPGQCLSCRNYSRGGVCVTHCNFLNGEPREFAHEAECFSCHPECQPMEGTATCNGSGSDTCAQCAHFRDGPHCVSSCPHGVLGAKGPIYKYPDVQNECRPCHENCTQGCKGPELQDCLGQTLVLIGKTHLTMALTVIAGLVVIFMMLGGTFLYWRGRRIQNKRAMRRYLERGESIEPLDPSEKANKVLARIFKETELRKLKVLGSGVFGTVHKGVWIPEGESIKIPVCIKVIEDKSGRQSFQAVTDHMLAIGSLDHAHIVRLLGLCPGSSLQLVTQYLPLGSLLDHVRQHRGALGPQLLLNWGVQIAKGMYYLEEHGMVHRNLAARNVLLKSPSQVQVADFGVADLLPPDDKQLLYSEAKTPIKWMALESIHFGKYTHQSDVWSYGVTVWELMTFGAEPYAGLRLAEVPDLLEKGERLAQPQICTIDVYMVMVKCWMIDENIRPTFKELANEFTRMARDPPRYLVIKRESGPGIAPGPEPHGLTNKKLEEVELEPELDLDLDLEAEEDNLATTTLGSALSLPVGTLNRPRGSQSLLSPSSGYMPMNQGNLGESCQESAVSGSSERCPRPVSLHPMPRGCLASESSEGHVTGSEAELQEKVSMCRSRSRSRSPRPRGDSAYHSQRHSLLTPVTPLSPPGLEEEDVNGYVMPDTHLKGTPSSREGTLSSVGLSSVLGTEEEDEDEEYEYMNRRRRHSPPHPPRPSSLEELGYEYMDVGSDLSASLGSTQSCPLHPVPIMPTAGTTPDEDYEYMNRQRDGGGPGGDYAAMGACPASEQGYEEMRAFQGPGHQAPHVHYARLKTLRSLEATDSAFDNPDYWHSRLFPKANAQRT
UniProt Q15303, whole entry R711C: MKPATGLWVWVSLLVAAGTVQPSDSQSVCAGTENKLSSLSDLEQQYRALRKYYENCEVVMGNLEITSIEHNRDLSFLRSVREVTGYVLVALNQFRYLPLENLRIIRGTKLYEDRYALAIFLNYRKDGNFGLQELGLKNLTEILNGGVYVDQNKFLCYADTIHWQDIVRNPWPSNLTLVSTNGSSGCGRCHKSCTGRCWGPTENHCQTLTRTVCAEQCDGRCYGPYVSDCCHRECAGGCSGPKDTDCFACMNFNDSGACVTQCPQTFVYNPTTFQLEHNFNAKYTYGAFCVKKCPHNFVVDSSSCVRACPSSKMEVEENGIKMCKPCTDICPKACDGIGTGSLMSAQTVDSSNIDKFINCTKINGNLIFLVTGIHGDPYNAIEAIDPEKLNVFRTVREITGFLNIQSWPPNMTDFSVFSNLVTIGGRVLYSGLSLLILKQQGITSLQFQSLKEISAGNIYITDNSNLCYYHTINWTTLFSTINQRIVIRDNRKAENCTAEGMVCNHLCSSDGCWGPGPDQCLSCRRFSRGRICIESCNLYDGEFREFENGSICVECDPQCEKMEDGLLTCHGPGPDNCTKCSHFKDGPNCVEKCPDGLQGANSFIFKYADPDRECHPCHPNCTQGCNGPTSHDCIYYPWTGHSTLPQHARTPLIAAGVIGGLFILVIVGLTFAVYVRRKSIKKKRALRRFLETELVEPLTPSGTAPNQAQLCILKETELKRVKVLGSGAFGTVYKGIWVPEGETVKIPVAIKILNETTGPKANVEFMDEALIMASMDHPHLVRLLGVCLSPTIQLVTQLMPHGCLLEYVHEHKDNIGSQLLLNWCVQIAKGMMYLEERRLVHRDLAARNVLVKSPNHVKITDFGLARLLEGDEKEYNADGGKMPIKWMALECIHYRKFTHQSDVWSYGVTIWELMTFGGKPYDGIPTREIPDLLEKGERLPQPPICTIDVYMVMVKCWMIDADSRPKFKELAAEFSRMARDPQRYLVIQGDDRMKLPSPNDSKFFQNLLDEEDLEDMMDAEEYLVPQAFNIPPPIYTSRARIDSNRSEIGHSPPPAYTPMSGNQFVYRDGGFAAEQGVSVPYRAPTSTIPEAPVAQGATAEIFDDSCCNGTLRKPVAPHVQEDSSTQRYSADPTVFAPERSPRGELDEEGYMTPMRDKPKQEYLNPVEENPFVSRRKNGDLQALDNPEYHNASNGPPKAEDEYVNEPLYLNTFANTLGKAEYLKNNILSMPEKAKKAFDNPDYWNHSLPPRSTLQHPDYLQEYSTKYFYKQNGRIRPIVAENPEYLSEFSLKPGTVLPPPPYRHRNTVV
UniProt O75460: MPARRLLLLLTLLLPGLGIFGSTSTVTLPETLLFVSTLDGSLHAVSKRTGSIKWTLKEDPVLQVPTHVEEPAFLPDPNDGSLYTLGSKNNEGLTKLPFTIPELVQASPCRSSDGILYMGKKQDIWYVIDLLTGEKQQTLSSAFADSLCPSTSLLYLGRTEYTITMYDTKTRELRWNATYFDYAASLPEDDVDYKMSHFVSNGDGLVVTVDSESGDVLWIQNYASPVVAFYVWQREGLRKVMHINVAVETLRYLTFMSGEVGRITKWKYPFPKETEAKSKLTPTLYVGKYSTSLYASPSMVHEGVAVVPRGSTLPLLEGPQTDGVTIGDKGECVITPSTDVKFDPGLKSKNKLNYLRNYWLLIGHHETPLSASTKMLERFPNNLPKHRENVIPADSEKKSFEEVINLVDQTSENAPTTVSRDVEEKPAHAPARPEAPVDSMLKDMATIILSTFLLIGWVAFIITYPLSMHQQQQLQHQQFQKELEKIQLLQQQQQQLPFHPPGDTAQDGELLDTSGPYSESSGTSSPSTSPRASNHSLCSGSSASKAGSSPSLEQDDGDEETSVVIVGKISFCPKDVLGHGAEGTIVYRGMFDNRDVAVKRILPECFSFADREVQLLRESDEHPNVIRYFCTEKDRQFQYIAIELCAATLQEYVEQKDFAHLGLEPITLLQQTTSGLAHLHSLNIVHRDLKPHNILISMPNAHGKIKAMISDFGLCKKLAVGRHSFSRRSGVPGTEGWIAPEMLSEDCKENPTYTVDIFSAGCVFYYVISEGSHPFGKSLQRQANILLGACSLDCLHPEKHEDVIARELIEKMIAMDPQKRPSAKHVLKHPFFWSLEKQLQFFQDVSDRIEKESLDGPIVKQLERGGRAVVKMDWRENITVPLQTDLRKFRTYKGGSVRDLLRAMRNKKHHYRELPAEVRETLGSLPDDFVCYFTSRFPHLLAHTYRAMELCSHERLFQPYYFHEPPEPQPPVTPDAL
UniProt P11362, whole entry, looked up: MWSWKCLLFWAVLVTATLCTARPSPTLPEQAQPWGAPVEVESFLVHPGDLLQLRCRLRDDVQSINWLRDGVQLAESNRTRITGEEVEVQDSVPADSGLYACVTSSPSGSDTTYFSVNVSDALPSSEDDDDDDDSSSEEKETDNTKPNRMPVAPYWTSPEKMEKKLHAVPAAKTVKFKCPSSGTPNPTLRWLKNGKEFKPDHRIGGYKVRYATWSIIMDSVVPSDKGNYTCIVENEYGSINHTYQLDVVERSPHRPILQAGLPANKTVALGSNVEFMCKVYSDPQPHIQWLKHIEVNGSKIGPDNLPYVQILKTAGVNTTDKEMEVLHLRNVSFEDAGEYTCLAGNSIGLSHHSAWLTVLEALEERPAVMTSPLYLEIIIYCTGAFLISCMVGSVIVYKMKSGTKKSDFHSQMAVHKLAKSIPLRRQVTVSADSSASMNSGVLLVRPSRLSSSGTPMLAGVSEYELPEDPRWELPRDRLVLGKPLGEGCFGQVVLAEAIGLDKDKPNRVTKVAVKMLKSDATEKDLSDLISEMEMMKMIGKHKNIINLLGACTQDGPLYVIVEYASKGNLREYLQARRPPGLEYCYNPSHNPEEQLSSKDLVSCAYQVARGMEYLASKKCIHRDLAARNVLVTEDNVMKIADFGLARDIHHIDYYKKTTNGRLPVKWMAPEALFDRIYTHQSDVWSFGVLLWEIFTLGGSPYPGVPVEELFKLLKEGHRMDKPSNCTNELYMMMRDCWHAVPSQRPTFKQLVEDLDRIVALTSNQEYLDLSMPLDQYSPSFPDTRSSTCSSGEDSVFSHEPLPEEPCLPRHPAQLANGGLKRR
UniProt P36888, whole entry: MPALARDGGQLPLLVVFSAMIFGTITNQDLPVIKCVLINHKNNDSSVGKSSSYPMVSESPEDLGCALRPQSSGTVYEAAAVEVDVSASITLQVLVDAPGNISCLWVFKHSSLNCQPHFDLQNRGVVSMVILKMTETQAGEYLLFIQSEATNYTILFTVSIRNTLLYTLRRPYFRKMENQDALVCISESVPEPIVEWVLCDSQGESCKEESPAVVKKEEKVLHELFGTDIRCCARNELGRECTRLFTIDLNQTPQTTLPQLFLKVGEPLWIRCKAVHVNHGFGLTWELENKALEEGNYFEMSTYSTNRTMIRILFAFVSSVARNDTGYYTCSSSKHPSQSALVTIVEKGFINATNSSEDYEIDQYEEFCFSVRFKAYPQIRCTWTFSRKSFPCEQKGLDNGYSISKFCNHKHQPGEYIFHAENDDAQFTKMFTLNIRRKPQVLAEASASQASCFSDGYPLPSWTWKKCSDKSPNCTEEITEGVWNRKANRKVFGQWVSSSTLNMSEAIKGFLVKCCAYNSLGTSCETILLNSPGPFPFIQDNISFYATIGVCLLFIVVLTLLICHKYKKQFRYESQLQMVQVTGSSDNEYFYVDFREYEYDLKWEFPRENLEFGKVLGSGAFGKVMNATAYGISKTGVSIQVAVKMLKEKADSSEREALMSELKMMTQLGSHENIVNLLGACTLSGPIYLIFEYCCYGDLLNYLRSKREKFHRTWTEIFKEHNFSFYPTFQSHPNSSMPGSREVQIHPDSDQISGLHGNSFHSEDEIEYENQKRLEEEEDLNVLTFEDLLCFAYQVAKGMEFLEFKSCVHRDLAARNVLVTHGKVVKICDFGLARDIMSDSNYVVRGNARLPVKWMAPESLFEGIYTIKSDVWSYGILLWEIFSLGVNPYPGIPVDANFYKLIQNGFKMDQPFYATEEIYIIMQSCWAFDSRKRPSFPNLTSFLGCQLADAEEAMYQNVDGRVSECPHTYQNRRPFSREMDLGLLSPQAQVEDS
UniProt P06241, whole entry, looked up: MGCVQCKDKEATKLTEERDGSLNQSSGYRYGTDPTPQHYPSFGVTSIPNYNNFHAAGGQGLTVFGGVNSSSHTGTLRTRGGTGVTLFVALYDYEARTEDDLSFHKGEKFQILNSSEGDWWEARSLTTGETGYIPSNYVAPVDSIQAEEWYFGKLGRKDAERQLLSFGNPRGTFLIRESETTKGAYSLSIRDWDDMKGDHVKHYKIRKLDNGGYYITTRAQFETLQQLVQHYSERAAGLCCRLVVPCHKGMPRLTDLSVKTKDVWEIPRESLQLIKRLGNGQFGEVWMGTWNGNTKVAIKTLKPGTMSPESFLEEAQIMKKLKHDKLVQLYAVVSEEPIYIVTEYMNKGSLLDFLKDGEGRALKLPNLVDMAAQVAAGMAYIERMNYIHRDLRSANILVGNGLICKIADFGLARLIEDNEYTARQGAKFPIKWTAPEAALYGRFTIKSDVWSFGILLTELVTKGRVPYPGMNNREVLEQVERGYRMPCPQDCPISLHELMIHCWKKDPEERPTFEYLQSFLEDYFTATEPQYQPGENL
UniProt P49840: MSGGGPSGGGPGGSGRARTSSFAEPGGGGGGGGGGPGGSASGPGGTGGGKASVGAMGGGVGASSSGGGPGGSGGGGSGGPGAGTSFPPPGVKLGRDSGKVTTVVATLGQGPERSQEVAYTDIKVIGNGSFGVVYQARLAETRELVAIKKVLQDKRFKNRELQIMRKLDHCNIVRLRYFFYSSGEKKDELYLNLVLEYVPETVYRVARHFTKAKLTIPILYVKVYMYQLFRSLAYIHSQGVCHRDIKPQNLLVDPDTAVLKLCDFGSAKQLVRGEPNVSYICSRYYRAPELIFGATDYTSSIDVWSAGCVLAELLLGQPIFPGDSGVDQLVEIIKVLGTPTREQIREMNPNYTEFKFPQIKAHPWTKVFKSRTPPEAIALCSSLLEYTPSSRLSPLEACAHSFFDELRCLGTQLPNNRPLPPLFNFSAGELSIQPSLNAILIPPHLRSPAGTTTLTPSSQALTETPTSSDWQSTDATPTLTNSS

Key:
Assay in all cases: kinase-Nluc reporter destabilization hit call (1 = scored as downregulated) (binary); higher = compound decreases kinase abundance
Details in all cases: K562; 2-18 h
EGFR = EGFR (UniProt P00533)
EGFR_G719S = EGFR_G719S (UniProt P00533)
EGFR_G719S_T790M = EGFR_G719S_T790M (UniProt P00533)
EGFR_L718V = EGFR_L718V (UniProt P00533)
EGFR_L858R = EGFR_L858R (UniProt P00533)
EGFR_L861Q = EGFR_L861Q (UniProt P00533)
EGFR_T790M = EGFR_T790M (UniProt P00533)
EPHA2 = EPHA2 (UniProt P29317)
ERBB3 = ERBB3 (UniProt P21860)
[1] = molecular target: ERBB4_R711C (clone: ERBB4_mut) (UniProt Q15303)
ERN1 = ERN1 (UniProt O75460)
FGFR1 = FGFR1 (UniProt P11362)
FGFR2 = FGFR2 (UniProt P21802)
FGFR3 = FGFR3 (UniProt P22607)
FGR = FGR (UniProt P09769)
FLT3 = FLT3 (UniProt P36888)
FYN = FYN (UniProt P06241)
GSK3A = GSK3A (UniProt P49840)
HER2 = HER2 (UniProt P04626)
INSRR = INSRR (UniProt P14616)

| Compound | kinase-Nluc reporter destabilization hit call (EGFR) | kinase-Nluc reporter destabilization hit call (EGFR_G719S) | kinase-Nluc reporter destabilization hit call (EGFR_G719S_T790M) | kinase-Nluc reporter destabilization hit call (EGFR_L718V) | kinase-Nluc reporter destabilization hit call (EGFR_L858R) | kinase-Nluc reporter destabilization hit call (EGFR_L861Q) | kinase-Nluc reporter destabilization hit call (EGFR_T790M) | kinase-Nluc reporter destabilization hit call (EPHA2) | kinase-Nluc reporter destabilization hit call (ERBB3) | kinase-Nluc reporter destabilization hit call [1] | kinase-Nluc reporter destabilization hit call (ERN1) | kinase-Nluc reporter destabilization hit call (FGFR1) | kinase-Nluc reporter destabilization hit call (FGFR2) | kinase-Nluc reporter destabilization hit call (FGFR3) | kinase-Nluc reporter destabilization hit call (FGR) | kinase-Nluc reporter destabilization hit call (FLT3) | kinase-Nluc reporter destabilization hit call (FYN) | kinase-Nluc reporter destabilization hit call (GSK3A) | kinase-Nluc reporter destabilization hit call (HER2) | kinase-Nluc reporter destabilization hit call (INSRR) |
| --- | --- | --- | --- | --- | --- | --- | --- | --- | --- | --- | --- | --- | --- | --- | --- | --- | --- | --- | --- | --- |
| CN(C)CCC=C1c2ccccc2CCc2ccccc21 [Amitriptyline (hydrochloride)] (2.5 µM) | inactive: 0 | inactive: 0 | inactive: 0 | inactive: 0 | inactive: 0 | inactive: 0 | inactive: 0 | inactive: 0 | inactive: 0 | inactive: 0 | inactive: 0 | inactive: 0 | inactive: 0 | inactive: 0 | inactive: 0 | inactive: 0 | inactive: 0 | inactive: 0 | inactive: 0 | inactive: 0 |
| CCOC(=O)N1C/C(=C/c2ccccc2F)C(=O)/C(=C\c2ccccc2F)C1 (2.5 µM) | inactive: 0 | inactive: 0 | inactive: 0 | inactive: 0 | inactive: 0 | inactive: 0 | inactive: 0 | inactive: 0 | inactive: 0 | inactive: 0 | inactive: 0 | inactive: 0 | inactive: 0 | inactive: 0 | inactive: 0 | inactive: 0 | inactive: 0 | inactive: 0 | inactive: 0 | inactive: 0 |
| COc1cc(-c2cn[nH]c2)ccc1C(=O)Nc1ccc2c(c1)CCNCC2 (10 µM) | inactive: 0 | inactive: 0 | inactive: 0 | inactive: 0 | inactive: 0 | inactive: 0 | inactive: 0 | inactive: 0 | inactive: 0 | inactive: 0 | inactive: 0 | inactive: 0 | inactive: 0 | inactive: 0 | inactive: 0 | inactive: 0 | inactive: 0 | inactive: 0 | inactive: 0 | inactive: 0 |
| Nc1ncnc2c1c(COc1cccc(Cl)c1)nn2C1CCOCC1 (10 µM) | inactive: 0 | inactive: 0 | inactive: 0 | inactive: 0 | inactive: 0 | inactive: 0 | inactive: 0 | inactive: 0 | inactive: 0 | inactive: 0 | inactive: 0 | inactive: 0 | inactive: 0 | inactive: 0 | inactive: 0 | inactive: 0 | inactive: 0 | inactive: 0 | inactive: 0 | inactive: 0 |
| Cc1ccc(NC(=O)c2ccc(CN(CCN(C)C)C(=O)c3cccnc3)cc2)cc1Nc1nccc(-c2cccnc2)n1 [PDGFRα kinase inhibitor 1] (10 µM) | inactive: 0 | inactive: 0 | inactive: 0 | inactive: 0 | inactive: 0 | inactive: 0 | inactive: 0 | inactive: 0 | inactive: 0 | inactive: 0 | inactive: 0 | inactive: 0 | inactive: 0 | inactive: 0 | inactive: 0 | inactive: 0 | inactive: 0 | inactive: 0 | inactive: 0 | inactive: 0 |
| Nc1nccc(Oc2ccc(NC(=O)c3c[nH]cc(-c4ccc(F)cc4)c3=O)cc2F)c1Cl (10 µM) | inactive: 0 | inactive: 0 | inactive: 0 | inactive: 0 | inactive: 0 | inactive: 0 | inactive: 0 | inactive: 0 | inactive: 0 | inactive: 0 | inactive: 0 | inactive: 0 | inactive: 0 | inactive: 0 | inactive: 0 | inactive: 0 | inactive: 0 | inactive: 0 | active: 1 | inactive: 0 |
| Cc1ccc2c(Nc3cccc(Cl)c3F)nccc2c1NC(=O)c1csc2c(N)ncnc12 [Belvarafenib] (10 µM) | inactive: 0 | inactive: 0 | inactive: 0 | inactive: 0 | inactive: 0 | inactive: 0 | inactive: 0 | inactive: 0 | inactive: 0 | inactive: 0 | inactive: 0 | inactive: 0 | inactive: 0 | inactive: 0 | inactive: 0 | inactive: 0 | inactive: 0 | inactive: 0 | inactive: 0 | inactive: 0 |
| CCCNC(=O)Nc1ccc(Oc2ncnc3cc(OC)c(OC)cc23)cc1Cl (2.5 µM) | inactive: 0 | inactive: 0 | inactive: 0 | inactive: 0 | inactive: 0 | inactive: 0 | inactive: 0 | inactive: 0 | inactive: 0 | inactive: 0 | inactive: 0 | inactive: 0 | inactive: 0 | inactive: 0 | inactive: 0 | inactive: 0 | inactive: 0 | inactive: 0 | inactive: 0 | inactive: 0 |
